Measured values as given in patent US20050209147A1 (Stanford University, published 2005).

Target: Rho-kinase (ROCK), endogenous in Swiss 3T3 mouse fibroblasts (mouse)
Test: cell-based or functional assay

B1: P1-RhoA 92-119 fusion domain (Penetratin-1 fused through a glycine to human RhoA amino acids 92-119) (peptide)
peptide: RQIKIWFQNRRMKWKKGLENIPEKWTPEVKHFCPNVPIILVGNKK
  dose at which inhibition of LPA-induced stress fibers becomes significant: 10 µM
